Reference: patent publication US6664232B1 (Kyogo Itoh, priority 1998, dated 2003)

Assay: general procedure: Fmoc solid-phase peptide synthesis; Fmoc-Val-Alko Resin
Settings: whole synthesis, scale 100 mg resin
In the case of RVKAPNKSL, the isolated mass is reported as 44.7 mg. With LLETTVQKV the isolated mass was 32.2 mg.

Assay: general procedure: Fmoc solid-phase peptide synthesis; Fmoc-Leu-Alko Resin
Settings: whole synthesis, scale 100 mg resin
AQKTPYIVL showed an isolated mass of 29.3 mg. With YVDETGRKL the isolated mass was 42.3 mg. In the case of LLLCQNKGL, the isolated mass is reported as 46.3 mg. In the case of LLLCQNKGLL, the isolated mass is reported as 27.1 mg.

No end group written: not given here.
